In paper PMC12130552 one finds binding data, which are given here for one molecule.

No constants are given. Whether binding was seen depends on the method and setting. Binding seen in cells or lysates may run through a third protein. These calls come from enrichment with a bait or labelling near it, and not all partners need be listed.

The target in the assay is T1, SLC39A1 (human) (UniProt Q9NY26).
T1 sequence: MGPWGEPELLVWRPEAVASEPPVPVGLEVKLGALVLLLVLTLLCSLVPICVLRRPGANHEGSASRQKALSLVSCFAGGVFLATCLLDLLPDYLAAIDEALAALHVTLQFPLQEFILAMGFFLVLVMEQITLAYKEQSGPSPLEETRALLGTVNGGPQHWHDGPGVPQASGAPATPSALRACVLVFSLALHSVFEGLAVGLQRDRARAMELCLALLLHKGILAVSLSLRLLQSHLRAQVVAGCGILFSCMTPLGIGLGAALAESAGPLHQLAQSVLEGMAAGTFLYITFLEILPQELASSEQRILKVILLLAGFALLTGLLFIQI
The experiment in a line: affinity purification with mass spectrometry; SLC39A1 pulldown in HEK293-SLC39A1-WTOE cells; AP-MS data of the RESOLUTE interaction proteomics (Frommelt et al, 2025).

B1: SLC30A9 (protein, UniProt Q6PML9 68-568)
chain: STNVQKEGQGSQTLRVEKVPSFETAEGIGTELKAPLKQEPLQVRVKAVLKKREYGSKYTQNNFITGVRAINEFCLKSSDLEQLRKIRRRSPHEDTESFTVYLRSDVEAKSLEVWGSPEALAREKKLRKEAEIEYRERLFRNQKILREYRDFLGNTKPRSRTASVFFKGPGKVVMVAICINGLNCFFKFLAWIYTGSASMFSEAIHSLSDTCNQGLLALGISKSVQTPDPSHPYGFSNMRYISSLISGVGIFMMGAGLSWYHGVMGLLHPQPIESLLWAYCILAGSLVSEGATLLVAVNELRRNARAKGMSFYKYVMESRDPSTNVILLEDTAAVLGVIIAATCMGLTSITGNPLYDSLGSLGVGTLLGMVSAFLIYTNTEALLGRSIQPEQVQRLTELLENDPSVRAIHDVKATDLGLGKVRFKAEVDFDGRVVTRSYLEKQDFDQMLQEIQEVKTPEELETFMLKHGENIIDTLGAEVDRLEKELKKRNPEVRHVDLEIL
On to B1, for which the binding entry is listed as “binds”.
